# Tested on: class I HDAC complexes
# Test: fluorescent HDAC assay, summaries over groups of complexes
# Format: biochemical
# Conditions: 100 μM InsP6
# Method: Class I HDAC complexes were expressed and purified from mammalian HEK293F cells. […] We explored seven different HDAC complexes: five with HDAC1 (CoREST, MIER1, MiDAC, NuRD, and RERE); one with HDAC2 (CoREST), and one with HDAC3 (SMRT). Complexes ranged from having two components (HDAC1-RERE) to four components (HDAC1-NuRD) (Figure A, Table S1). […]
# was resuspended in 4 mL of cleavage buffer. 30 -40 µL of 1.2 mg/mL Tobacco etch virus ( TEV) protease was added to the mixture and incubated overnight at 4 °C. After T EV cleavage, the protein was concentrated to 500 µL using the 4 mL Amicon®Ultra centrifugal fi lter (Merck Millipore) with a membrane nominal molecular weight cut off of 10 kDa. The concentrated protein was then filtered through a 0.22 µm centrifugal filter (Merck Millipore). […]
# the bottom of gel. […] Concentration of the protein was determined using a protein assay dye reagent (Bio-Rad). […]
# The concentration of the protein sample in mg/mL was then calculated by multiplying by ‘17’, which represents a factor calculated from a BSA standard curve. […]
# complex and inhibitor were then incubated at 20 °C, 100 RPM for 2 hours . […] Fluorescence intensity was determined with the Victor […]
# IC50 values were calculated using GraphPad
structure (smiles),measurement,value
"O=C(CCCCCCC(=O)Nc1ccccc1)NO [SAHA, vorinostat]",effect of InsP6 on inhibition,no significant effects
